One assay addresses T1, GFP-tagged A17-PABPN1 (UniProt Q86U42).
T1 sequence: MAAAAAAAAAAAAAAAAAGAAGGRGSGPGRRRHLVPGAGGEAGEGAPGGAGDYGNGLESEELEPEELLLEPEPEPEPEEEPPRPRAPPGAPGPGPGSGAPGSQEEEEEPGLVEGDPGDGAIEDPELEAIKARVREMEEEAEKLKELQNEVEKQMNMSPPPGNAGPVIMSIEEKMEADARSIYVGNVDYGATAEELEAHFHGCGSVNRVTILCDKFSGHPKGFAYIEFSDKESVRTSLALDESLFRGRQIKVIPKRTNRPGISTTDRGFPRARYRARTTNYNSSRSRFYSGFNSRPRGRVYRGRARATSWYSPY
As to the kind of experiment: co-IP; A17-PABPN1-expressing C2C12 myoblasts treated with 17-AAG for the indicated times; lysates precipitated with anti-GFP antibody.

The chains behind the UniProt entries cited, without tags or fusion partners.
UniProt Q9WUD1: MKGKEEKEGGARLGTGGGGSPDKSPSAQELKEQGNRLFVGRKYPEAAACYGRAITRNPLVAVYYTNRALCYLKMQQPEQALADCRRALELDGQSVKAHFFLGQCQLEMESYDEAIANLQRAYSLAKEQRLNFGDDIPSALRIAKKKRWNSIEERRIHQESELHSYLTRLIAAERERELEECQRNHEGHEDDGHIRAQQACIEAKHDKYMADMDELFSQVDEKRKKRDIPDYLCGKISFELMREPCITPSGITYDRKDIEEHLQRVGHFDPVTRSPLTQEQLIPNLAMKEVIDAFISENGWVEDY

The next assay concerns the target Myc-tagged CHIP (mouse) (UniProt Q9WUD1). The experiment in a line: co-IP; HEK293 cells co-transfected with Myc-tagged CHIP and GFP-tagged A10-PABPN1 or A17-PABPN1; lysates precipitated with a Myc antibody 48 hr after transfection.

These are yes or no findings as the source states them, for the method shown. In cells and extracts the contact can be indirect. Some results given as binding are weak or reduced against the parent protein; the word gives no strength. Sequences can lack the tags named with a protein.

In the case of “CHIP of C2C12 myoblasts (from UniProt Q9WUD1 1-304) (enzyme)”, the binding result with GFP-tagged A17-PABPN1 is recorded as “binds”.

B1: GFP-tagged A10-PABPN1 (protein, UniProt Q86U42 1-306)
chain: MAAAAAAAAAAGAAGGRGSGPGRRRHLVPGAGGEAGEGAPGGAGDYGNGLESEELEPEELLLEPEPEPEPEEEPPRPRAPPGAPGPGPGSGAPGSQEEEEEPGLVEGDPGDGAIEDPELEAIKARVREMEEEAEKLKELQNEVEKQMNMSPPPGNAGPVIMSIEEKMEADARSIYVGNVDYGATAEELEAHFHGCGSVNRVTILCDKFSGHPKGFAYIEFSDKESVRTSLALDESLFRGRQIKVIPKRTNRPGISTTDRGFPRARYRARTTNYNSSRSRFYSGFNSRPRGRVYRGRARATSWYSPY
Take B1: in the assay with Myc-tagged CHIP (mouse), the binding result is on record as “binds”.

B2: GFP-tagged A17-PABPN1 (protein, UniProt Q86U42 1-306)
chain: MAAAAAAAAAAAAAAAAAGAAGGRGSGPGRRRHLVPGAGGEAGEGAPGGAGDYGNGLESEELEPEELLLEPEPEPEPEEEPPRPRAPPGAPGPGPGSGAPGSQEEEEEPGLVEGDPGDGAIEDPELEAIKARVREMEEEAEKLKELQNEVEKQMNMSPPPGNAGPVIMSIEEKMEADARSIYVGNVDYGATAEELEAHFHGCGSVNRVTILCDKFSGHPKGFAYIEFSDKESVRTSLALDESLFRGRQIKVIPKRTNRPGISTTDRGFPRARYRARTTNYNSSRSRFYSGFNSRPRGRVYRGRARATSWYSPY
As to B2, in the assay with Myc-tagged CHIP (mouse), the binding entry is “binds”.

Source of the values: article PMC4587574.
